Test results as given in article PMC6800482.
No constants are given. Whether binding was seen depends on the method and setting. In cells and extracts the contact can be indirect. Some entries that bind do so weakly or less than the wild type. Where a sequence is shown, tags or fusion partners need not be part of it.

By UniProt entry, the sequences of proteins in these tests, tags left out.
UniProt P33334: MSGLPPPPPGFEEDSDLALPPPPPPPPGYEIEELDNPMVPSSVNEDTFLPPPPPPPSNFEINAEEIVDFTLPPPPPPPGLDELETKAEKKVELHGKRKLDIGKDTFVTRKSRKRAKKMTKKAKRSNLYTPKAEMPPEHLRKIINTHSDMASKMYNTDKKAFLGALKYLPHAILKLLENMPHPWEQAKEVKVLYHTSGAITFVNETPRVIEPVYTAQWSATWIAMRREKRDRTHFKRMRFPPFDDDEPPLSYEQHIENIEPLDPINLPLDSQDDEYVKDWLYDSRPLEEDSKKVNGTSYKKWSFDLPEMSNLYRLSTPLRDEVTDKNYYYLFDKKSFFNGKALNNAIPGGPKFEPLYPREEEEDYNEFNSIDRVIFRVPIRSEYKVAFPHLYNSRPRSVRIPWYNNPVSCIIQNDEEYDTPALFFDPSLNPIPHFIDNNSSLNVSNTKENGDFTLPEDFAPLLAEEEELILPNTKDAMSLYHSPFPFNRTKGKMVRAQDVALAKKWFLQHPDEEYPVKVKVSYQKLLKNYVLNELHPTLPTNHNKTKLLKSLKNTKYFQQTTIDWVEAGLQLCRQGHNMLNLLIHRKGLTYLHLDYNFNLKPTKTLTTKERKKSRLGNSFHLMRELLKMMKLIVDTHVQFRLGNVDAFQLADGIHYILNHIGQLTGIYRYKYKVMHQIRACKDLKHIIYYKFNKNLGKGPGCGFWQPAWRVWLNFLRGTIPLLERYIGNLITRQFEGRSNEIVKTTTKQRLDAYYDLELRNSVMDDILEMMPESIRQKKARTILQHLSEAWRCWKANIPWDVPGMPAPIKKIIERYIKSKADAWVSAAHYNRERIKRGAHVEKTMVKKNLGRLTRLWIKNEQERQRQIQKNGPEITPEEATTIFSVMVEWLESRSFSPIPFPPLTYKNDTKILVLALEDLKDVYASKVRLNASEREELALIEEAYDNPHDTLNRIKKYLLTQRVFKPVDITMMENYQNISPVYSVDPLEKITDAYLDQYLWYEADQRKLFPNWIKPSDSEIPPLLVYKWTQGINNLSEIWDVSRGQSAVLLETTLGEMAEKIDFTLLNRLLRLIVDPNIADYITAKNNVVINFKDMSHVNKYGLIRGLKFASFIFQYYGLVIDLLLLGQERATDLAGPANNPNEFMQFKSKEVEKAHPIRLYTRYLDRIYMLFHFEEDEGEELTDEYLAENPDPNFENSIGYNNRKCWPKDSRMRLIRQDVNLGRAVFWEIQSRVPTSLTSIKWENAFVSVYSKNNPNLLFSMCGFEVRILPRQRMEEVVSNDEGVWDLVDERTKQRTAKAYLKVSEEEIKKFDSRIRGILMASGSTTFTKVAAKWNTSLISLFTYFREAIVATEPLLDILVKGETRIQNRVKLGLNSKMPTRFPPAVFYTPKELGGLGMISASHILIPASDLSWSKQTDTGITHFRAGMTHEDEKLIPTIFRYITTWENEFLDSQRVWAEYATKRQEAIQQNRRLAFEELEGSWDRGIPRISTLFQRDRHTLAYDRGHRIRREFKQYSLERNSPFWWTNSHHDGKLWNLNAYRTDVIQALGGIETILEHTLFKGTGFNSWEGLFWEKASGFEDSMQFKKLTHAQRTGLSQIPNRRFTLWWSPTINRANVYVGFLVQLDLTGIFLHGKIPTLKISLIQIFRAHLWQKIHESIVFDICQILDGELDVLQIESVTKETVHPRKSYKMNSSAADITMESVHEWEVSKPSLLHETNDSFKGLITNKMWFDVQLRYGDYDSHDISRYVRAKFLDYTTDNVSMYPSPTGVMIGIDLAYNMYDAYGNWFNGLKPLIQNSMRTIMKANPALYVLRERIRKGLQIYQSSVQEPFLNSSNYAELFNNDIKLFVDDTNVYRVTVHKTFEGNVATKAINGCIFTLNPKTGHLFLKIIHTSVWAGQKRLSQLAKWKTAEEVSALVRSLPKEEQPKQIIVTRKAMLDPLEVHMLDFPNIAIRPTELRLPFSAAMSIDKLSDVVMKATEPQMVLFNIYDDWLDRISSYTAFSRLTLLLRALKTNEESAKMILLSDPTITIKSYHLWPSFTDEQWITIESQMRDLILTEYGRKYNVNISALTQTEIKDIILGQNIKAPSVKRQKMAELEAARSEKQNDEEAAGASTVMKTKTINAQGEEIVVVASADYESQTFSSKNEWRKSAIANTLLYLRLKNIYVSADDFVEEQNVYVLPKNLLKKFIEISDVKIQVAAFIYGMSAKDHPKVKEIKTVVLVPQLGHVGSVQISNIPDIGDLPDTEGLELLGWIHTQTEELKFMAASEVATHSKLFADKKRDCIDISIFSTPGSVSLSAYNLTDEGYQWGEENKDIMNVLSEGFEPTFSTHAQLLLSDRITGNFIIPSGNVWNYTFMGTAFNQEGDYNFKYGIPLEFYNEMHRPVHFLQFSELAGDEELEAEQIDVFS

Target: T1, Spt5-AID*-6Flag (S. cerevisiae) (UniProt P27692)
T1 sequence: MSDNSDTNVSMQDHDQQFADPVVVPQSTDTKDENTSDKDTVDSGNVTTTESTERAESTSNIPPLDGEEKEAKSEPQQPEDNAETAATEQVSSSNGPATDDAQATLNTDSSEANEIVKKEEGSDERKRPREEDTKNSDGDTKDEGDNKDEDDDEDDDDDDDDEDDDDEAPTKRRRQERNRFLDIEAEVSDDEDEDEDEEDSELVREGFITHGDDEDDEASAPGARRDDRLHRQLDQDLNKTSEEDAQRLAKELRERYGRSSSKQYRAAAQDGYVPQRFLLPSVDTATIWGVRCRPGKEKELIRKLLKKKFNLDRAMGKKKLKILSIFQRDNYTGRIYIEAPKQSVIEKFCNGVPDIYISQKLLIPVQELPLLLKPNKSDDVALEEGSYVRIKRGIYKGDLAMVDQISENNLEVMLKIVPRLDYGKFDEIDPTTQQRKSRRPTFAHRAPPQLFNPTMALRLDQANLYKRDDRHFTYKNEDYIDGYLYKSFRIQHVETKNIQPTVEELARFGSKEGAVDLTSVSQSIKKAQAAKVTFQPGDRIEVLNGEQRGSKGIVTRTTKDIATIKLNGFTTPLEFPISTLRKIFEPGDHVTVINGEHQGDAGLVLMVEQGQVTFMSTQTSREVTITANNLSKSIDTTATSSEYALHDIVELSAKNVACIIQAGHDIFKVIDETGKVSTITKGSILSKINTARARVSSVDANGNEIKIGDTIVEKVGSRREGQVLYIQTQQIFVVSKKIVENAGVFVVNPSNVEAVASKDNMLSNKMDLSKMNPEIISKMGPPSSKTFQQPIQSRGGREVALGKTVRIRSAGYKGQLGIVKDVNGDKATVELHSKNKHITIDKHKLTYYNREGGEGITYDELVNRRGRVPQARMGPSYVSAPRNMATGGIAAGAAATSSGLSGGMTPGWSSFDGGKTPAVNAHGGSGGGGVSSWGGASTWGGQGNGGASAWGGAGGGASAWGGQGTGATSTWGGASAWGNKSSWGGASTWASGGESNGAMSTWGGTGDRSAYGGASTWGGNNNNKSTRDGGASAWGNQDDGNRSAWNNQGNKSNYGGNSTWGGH
Experiment: co-IP; Spt5-AID*-6Flag pulled down with anti-Flag antibody on Protein A/G Dynabeads from 1 mg of yeast lysate protein, 1 h at room temperature; lysis buffer 50 mM Tris-HCl pH 7.5, 150 mM NaCl, 0.2% NP-40; with or without RNase A (100 µg/mL); blots probed with anti-Prp40, anti-HA and anti-Prp8

## Prp8 (from UniProt P33334 1-2413)
  binding: binds
